Data taken from patent US11051513B2, “Pyridone compounds and agricultural and horticultural fungicides containing the same as active ingredients” (MITSUI CHEMICALS AGRO, INC., priority 2017, dated 2021).
Some results were stated once for a whole list of compounds, not compound by compound.

How the values were obtained:
Puccinia recondita = experiment: Test Example E: Brown rust on wheat; assay type: in vivo; conditions: 250 ppm sprayed (2.5 ml/pot) on wheat (Norin 61); disease development 7 to 10 days after inoculation
Magnaporthe grisea = assay type: in vivo; conditions: 250 ppm sprayed (2.5 ml/pot) on rice (Sachikaze); disease development 6 to 10 days after inoculation
[1] = system: Colletotrichum orbiculare; experiment: Test Example H: Anthracnose on cucumber; conditions: 250 ppm sprayed (2.5 ml/pot) on cucumber (Sagami Hanjiro); disease development 6 to 10 days after inoculation
Botrytis cinerea = experiment: Test Example B: Gray mold on tomato; conditions: 250 ppm sprayed (2.5 ml/pot) on tomato (Oogata Fukuju); disease development 2 to 3 days after inoculation
Alternaia brassicicola = experiment: Test Example C: Alternaria sooty spot on cabbage; conditions: 250 ppm sprayed (2.5 ml/pot) on cabbage (Shikidori); disease development 2 to 3 days after inoculation

Measured: control value

CCn1c(-c2ccccc2)c(-c2cc(F)ccc2C)cc(Cl)c1=O [compound 467]
> 50%: Puccinia recondita | Magnaporthe grisea | [1] | Botrytis cinerea | Alternaia brassicicola

O=c1c(Br)cc(-c2ccccc2Cl)c(-c2ccc(F)cc2)n1CC(F)(F)F [compound 412]
> 50%: Puccinia recondita | Magnaporthe grisea | [1] | Botrytis cinerea | Alternaia brassicicola

Cn1c(-c2ccccc2)c(-c2cccc(F)c2Cl)cc(Cl)c1=O [compound 97]
> 50%: Puccinia recondita | Magnaporthe grisea | [1] | Botrytis cinerea | Alternaia brassicicola

COc1cccc(-c2cc(Br)c(=O)n(C)c2-c2ccc(F)cc2)c1Cl [compound 100]
> 50%: Puccinia recondita | Magnaporthe grisea | [1] | Botrytis cinerea | Alternaia brassicicola

CCn1c(-c2ccc(OC)cc2)c(-c2ccccc2Cl)cc(Cl)c1=O [compound 151]
> 50%: Puccinia recondita | Magnaporthe grisea | [1] | Botrytis cinerea | Alternaia brassicicola

CCn1c(-c2ccc(C#N)cc2)c(-c2cc(OCSC)ccc2Cl)cc(Cl)c1=O [compound 448]
> 50%: Puccinia recondita | Magnaporthe grisea | [1] | Botrytis cinerea | Alternaia brassicicola

Cn1c(-c2ccc(F)cc2)c(-c2cc(F)cc(F)c2Br)cc(Cl)c1=O [compound 154]
> 50%: Puccinia recondita | Magnaporthe grisea | [1] | Botrytis cinerea | Alternaia brassicicola

COc1ccc(Cl)c(-c2cc(Br)c(=O)n(C)c2-c2ccccc2)c1 [compound 92]
> 50%: Puccinia recondita | Magnaporthe grisea | [1] | Botrytis cinerea | Alternaia brassicicola

CCn1c(-c2ccc(Br)cc2)c(-c2cc(F)cc(F)c2Cl)cc(Br)c1=O [compound 311]
> 50%: Puccinia recondita | Magnaporthe grisea | [1] | Alternaia brassicicola

Cn1c(-c2ccc(F)cc2)c(-c2ccccc2Br)cc(Cl)c1=O [compound 240]
> 50%: Puccinia recondita | Magnaporthe grisea | [1] | Botrytis cinerea | Alternaia brassicicola

CCn1c(-c2ccc(F)cc2)c(-c2cc(OC)ccc2Cl)cc(Br)c1=O [compound 46]
> 50%: Puccinia recondita | Magnaporthe grisea | [1] | Botrytis cinerea | Alternaia brassicicola

CSCOc1ccc(Cl)c(-c2cc(Cl)c(=O)n(CC(F)F)c2-c2ccc(C#N)cc2)c1 [compound 454]
> 50%: Puccinia recondita | Magnaporthe grisea | [1] | Botrytis cinerea | Alternaia brassicicola

Cn1c(-c2ccc(F)cc2)c(-c2cc(F)cc(F)c2Br)ccc1=O [compound 153]
> 50%: Puccinia recondita | Magnaporthe grisea | [1] | Botrytis cinerea | Alternaia brassicicola

Cn1c(-c2ccc(F)cc2)c(-c2cccc(F)c2Cl)cc(Cl)c1=O [compound 59]
> 50%: Puccinia recondita | Magnaporthe grisea | [1] | Botrytis cinerea | Alternaia brassicicola

CCn1c(-c2ccc(OCC#N)cc2)c(-c2cc(F)cc(F)c2Cl)ccc1=O [compound 227]
> 50%: Magnaporthe grisea | [1] | Botrytis cinerea | Alternaia brassicicola

COc1cccc(-c2cc(Cl)c(=O)n(C)c2-c2ccc(F)cc2)c1Cl [compound 101]
> 50%: Puccinia recondita | Magnaporthe grisea | [1] | Botrytis cinerea | Alternaia brassicicola

CCn1c(-c2ccccc2)c(-c2ccccc2Cl)cc(Cl)c1=O [compound 127]
> 50%: Puccinia recondita | Magnaporthe grisea | [1] | Botrytis cinerea | Alternaia brassicicola

CCn1c(-c2ccc(F)cc2)c(-c2ccccc2Br)cc(Br)c1=O [compound 233]
> 50%: Puccinia recondita | Magnaporthe grisea | [1] | Botrytis cinerea | Alternaia brassicicola

COc1ccc(-c2c(-c3cccc(F)c3Cl)cc(Cl)c(=O)n2C)cc1 [compound 63]
> 50%: Puccinia recondita | Magnaporthe grisea | [1] | Botrytis cinerea | Alternaia brassicicola

CCn1c(-c2ccc(OC)cc2)c(-c2cc(OC)ccc2Cl)cc(Br)c1=O [compound 74]
> 50%: Puccinia recondita | Magnaporthe grisea | [1] | Botrytis cinerea | Alternaia brassicicola

CCn1c(-c2ccc(F)cc2)c(-c2cc(OC(C)=O)ccc2Cl)cc(Cl)c1=O [compound 249]
> 50%: Puccinia recondita | Magnaporthe grisea | [1] | Botrytis cinerea | Alternaia brassicicola

CCn1c(-c2ccc(F)cc2)c(-c2cc(C)ccc2C)cc(Cl)c1=O [compound 478]
> 50%: Magnaporthe grisea | [1] | Botrytis cinerea | Alternaia brassicicola

CCn1c(-c2ccc(C)cc2)c(-c2ccccc2Cl)cc(Cl)c1=O [compound 156]
> 50%: Puccinia recondita | Magnaporthe grisea | [1] | Botrytis cinerea | Alternaia brassicicola

COc1ccc(Cl)c(-c2cc(Br)c(=O)n(C)c2-c2ccc(F)cc2)c1 [compound 47]
> 50%: Puccinia recondita | Magnaporthe grisea | [1] | Botrytis cinerea | Alternaia brassicicola

CCn1c(-c2ccc(O)cc2)c(-c2cc(F)cc(F)c2Cl)cc(Cl)c1=O [compound 165]
> 50%: Puccinia recondita | Magnaporthe grisea | [1] | Botrytis cinerea | Alternaia brassicicola

CCn1c(-c2ccc(F)cc2)c(-c2cccc(OCOC)c2Cl)cc(Cl)c1=O [compound 267]
> 50%: Puccinia recondita | Magnaporthe grisea | [1] | Botrytis cinerea | Alternaia brassicicola

O=c1c(Cl)cc(-c2cc(Cl)ccc2Cl)c(-c2ccc(F)cc2)n1CC(F)F [compound 422]
> 50%: Puccinia recondita | Magnaporthe grisea | [1] | Alternaia brassicicola

Cn1c(-c2ccc(C#N)cc2)c(-c2cc(F)cc(F)c2Cl)ccc1=O [compound 318]
> 50%: Puccinia recondita | Magnaporthe grisea | [1] | Botrytis cinerea | Alternaia brassicicola

CCn1c(-c2ccc(F)cc2)c(-c2ccccc2C#N)cc(Cl)c1=O [compound 299]
> 50%: Puccinia recondita | Magnaporthe grisea | [1] | Botrytis cinerea | Alternaia brassicicola

CCn1c(-c2ccccc2)c(-c2ccccc2C)cc(Cl)c1=O [compound 539]
> 50%: Magnaporthe grisea | [1] | Botrytis cinerea | Alternaia brassicicola

CCn1c(-c2ccc(F)cc2)c(-c2ccccc2Cl)cc(Br)c1=O [compound 148]
> 50%: Puccinia recondita | Magnaporthe grisea | [1] | Botrytis cinerea | Alternaia brassicicola

CCn1c(-c2ccc(F)cc2)c(-c2ccccc2C)cc(Br)c1=O [compound 294]
> 50%: Puccinia recondita | Magnaporthe grisea | [1] | Botrytis cinerea | Alternaia brassicicola

CCn1c(-c2cc(F)c(OC)c(F)c2)c(-c2cc(F)ccc2Cl)cc(Cl)c1=O [compound 186]
> 50%: Puccinia recondita | Magnaporthe grisea | [1] | Botrytis cinerea | Alternaia brassicicola

Cn1c(-c2ccc(F)cc2)c(-c2ccc(F)cc2Cl)cc(Cl)c1=O [compound 346]
> 50%: Puccinia recondita | Magnaporthe grisea | [1] | Botrytis cinerea | Alternaia brassicicola

CCn1c(-c2ccc(F)cc2)c(-c2cc(OCSC)ccc2Cl)cc(Br)c1=O [compound 434]
> 50%: Puccinia recondita | Magnaporthe grisea | [1] | Botrytis cinerea | Alternaia brassicicola

CCn1c(-c2ccc(OCC(F)F)cc2)c(-c2cc(F)cc(F)c2Cl)ccc1=O [compound 221]
> 50%: Puccinia recondita | Magnaporthe grisea | [1] | Alternaia brassicicola

CCn1c(-c2ccc(OCCOC)cc2)c(-c2cc(F)cc(F)c2Cl)ccc1=O [compound 228]
> 50%: Magnaporthe grisea | [1] | Botrytis cinerea | Alternaia brassicicola

CCn1c(-c2ccc(Cl)cc2)c(-c2ccccc2Cl)ccc1=O [compound 115]
> 50%: Magnaporthe grisea | [1] | Botrytis cinerea | Alternaia brassicicola
